Measured values reported in publication PMC10229617 (Nature Communications, 2023).
These are yes or no findings as the source states them, for the method shown. Some binding calls cover weakened binding; strength is not graded here. For some of these results: Sequences can lack the tags named with a protein.

By UniProt entry, the sequences of proteins in these tests, tags left out. Where a name states a change or a piece, a line headed by the entry shows the natural chain unless it says otherwise. Chains listed by the source or under a name are the forms on record and can include a tag or linker. Residues count along the entry.
UniProt P25156: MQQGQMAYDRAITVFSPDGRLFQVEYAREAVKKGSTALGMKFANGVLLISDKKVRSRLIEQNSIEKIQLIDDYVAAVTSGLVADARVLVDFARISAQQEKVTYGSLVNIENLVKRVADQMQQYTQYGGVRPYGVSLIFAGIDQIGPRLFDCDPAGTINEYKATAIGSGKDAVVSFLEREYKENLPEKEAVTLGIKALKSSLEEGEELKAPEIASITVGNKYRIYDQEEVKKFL
DJ-1ΔN (DJ-1 lacking the seven residues 4KRALVIL10 of the N-terminal motif) (Q99497, form named): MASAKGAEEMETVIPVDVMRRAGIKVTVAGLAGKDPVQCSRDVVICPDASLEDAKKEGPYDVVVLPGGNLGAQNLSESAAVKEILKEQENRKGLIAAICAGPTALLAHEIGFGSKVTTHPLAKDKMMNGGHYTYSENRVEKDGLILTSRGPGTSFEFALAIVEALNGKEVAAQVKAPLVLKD
UniProt O75828, residues 5-277: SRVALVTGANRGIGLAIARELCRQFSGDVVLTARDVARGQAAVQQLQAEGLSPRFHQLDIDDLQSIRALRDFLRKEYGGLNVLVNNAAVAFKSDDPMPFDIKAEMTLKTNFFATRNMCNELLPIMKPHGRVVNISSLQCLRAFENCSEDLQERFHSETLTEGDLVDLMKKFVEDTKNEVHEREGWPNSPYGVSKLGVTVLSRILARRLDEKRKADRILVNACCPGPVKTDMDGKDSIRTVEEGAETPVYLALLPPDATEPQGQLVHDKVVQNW

Legend:
[1] = molecular target: T1, T. acidophilum 20S proteasome β-subunit, His tagged, non-assembled (Thermoplasma acidophilum) (UniProt P28061); assay: pull-down; 50 µM CBR3 with 2 µM His tagged non-assembled α- or β-subunit, 25 mM HEPES pH 7.5, 1 h on ice; loaded on HisTrap FF, eluted with 300 mM imidazole; fractions blotted for CBR3 and His tag; both purified
T1 sequence: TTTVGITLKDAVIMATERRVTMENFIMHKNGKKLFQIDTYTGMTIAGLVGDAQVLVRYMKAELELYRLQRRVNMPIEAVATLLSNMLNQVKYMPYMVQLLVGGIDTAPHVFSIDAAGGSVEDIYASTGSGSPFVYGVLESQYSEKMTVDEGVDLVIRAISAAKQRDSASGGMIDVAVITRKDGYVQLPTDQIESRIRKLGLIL

[2] = molecular target: T. acidophilum 20S proteasome α-subunit, His tagged (α7 ring) (Thermoplasma acidophilum) (UniProt P25156); assay: as above
[3] = molecular target: T. acidophilum fully assembled 20S proteasome (α7β7β7α7) (Thermoplasma acidophilum) (UniProt P25156+P28061); assay: native MS; 0.3 µM archaeal 20S assembly mixture with 25 µM CBR3, 150 mM ammonium acetate pH 7.5, ~5 h on ice; each assembly isolated and dissociated by MS/MS (HCD 150 V); both purified
[4] = molecular target: T. acidophilum unprocessed half proteasome (α7β7) containing the β-subunit propeptides (Thermoplasma acidophilum) (UniProt P25156+P28061); assay: as above
[5] = molecular target: T. acidophilum 20S proteasome α-ring (α7), tag cleaved (Thermoplasma acidophilum) (UniProt P25156); assay: as above
[6] = molecular target: DJ-1ΔN (DJ-1 lacking the seven residues 4KRALVIL10 of the N-terminal motif) (human) (UniProt Q99497); assay: native MS; 20 µM protein in 500 mM ammonium acetate pH 7.5; Q-Exactive Plus Orbitrap EMR; both purified
[7] = molecular target: T. acidophilum 20S proteasome α-ring (α7), tag cleaved (Thermoplasma acidophilum) (UniProt P25156); assay: native MS; MS spectrum of the archaeal α/β assembly mixture (assembled without the 60 °C step), 150 mM ammonium acetate pH 7.5; both purified

## CBR3 (carbonyl reductase 3), human, purified recombinant (from UniProt O75828 5-277) (enzyme)
[1]
  binding: no binding (tested: 50 µM CBR3, 2 µM subunit)
[2]
  binding: no binding (tested: 50 µM CBR3, 2 µM subunit)
[3]
  binding: binds
[4]
  binding: no binding (tested: 25 µM CBR3, 0.3 µM 20S)
[5]
  binding: no binding (tested: 25 µM CBR3, 0.3 µM 20S)

## DJ-1ΔN (DJ-1 lacking the seven residues 4KRALVIL10 of the N-terminal motif) (from UniProt Q99497 1-189)
[6]
  binding: no binding (tested: 20 µM)

B1: T. acidophilum 20S proteasome β-subunit, tag cleaved, as mixed with the α-subunit for assembly (protein, UniProt P28061 9-211)
chain: T1 sequence
[7]
  binding: binds
